The other results are listed elsewhere or left out. Many values rest on one well or one pass, so single values are uncertain.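 The apoptosis fraction was the count of cleaved-PARP antibody-stained nuclei relative to all DNA-stained nuclei, imaged in 1,536-well plates. Screening doses were set so most cells survived, and baseline and induced cleaved-PARP levels vary greatly across cell lines.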
What follows are compounds tested on COLO829 (assay: cleaved PARP positive nuclei fraction relative to DMSO control; melanoma cells; higher = more apoptosis). Details: library dose: low library concentration; 72 h.

Row | Structure (SMILES) | cleaved PARP positive nuclei fraction [%]
1 | NC(=O)c1ccc(N(C(N)=O)c2c(F)cccc2F)nc1-c1ccc(F)cc1F + O=C(Oc1ccc([N+](=O)[O-])cc1)N1CCC(C(O)(c2ccc3c(c2)OCO3)c2ccc3c(c2)OCO3)CC1 [JZL184] (first compound 0.4 µM, partner dose 1 µM) | 109
2 | C[C@]12O[C@H](C[C@]1(O)CO)n1c3ccccc3c3c4c(c5c6ccccc6n2c5c31)CNC4=O [Lestaurtinib] + COc1ccc(COc2ccc(Cc3cnc(N)nc3N)cc2OC)cc1 [GW2580] (first compound 0.004 µM, partner dose 1 µM) | 30.4
3 | Cn1cc(C2=C(c3cn(C4CCN(Cc5ccccn5)CC4)c4ccccc34)C(=O)NC2=O)c2ccccc21 [Enzastaurin] + N.N.[Cl][Pt][Cl] [cisplatin] (first compound 0.8 µM, partner dose 1.6 µM) | 132
4 | C[As](C)SC[C@H](NC(=O)CC[C@H](N)C(=O)O)C(=O)NCC(=O)O [Darinaparsin] + COc1cc(N2CCC(N3CCN(C)CC3)CC2)ccc1Nc1ncc(Cl)c(Nc2ccccc2S(=O)(=O)C(C)C)n1 [NVP-TAE684] (first compound 0.4 µM, partner dose 0.08 µM) | 49.3
5 | C[C@]12O[C@H](C[C@]1(O)CO)n1c3ccccc3c3c4c(c5c6ccccc6n2c5c31)CNC4=O [Lestaurtinib] + Cn1nnc2c(C(N)=O)ncn2c1=O [temozolomide] (first compound 0.004 µM, partner dose 2 µM) | 95.3

— the supplement of paper PMC4604168 (melanoma cell lines)
